Source: paper PMC5854672, “Solution structure of extracellular loop of human β4 subunit of BK channel and its biological implication on ChTX sensitivity” (Scientific Reports, 2018)
Results are given in words; binding and its absence hold for the method and conditions named. Some results given as binding are weak or reduced against the parent protein; the word gives no strength.

Protein sequences, listed by entry. Tags and fused reporters are not part of them. Lines headed by an entry give the natural chain unless they say otherwise; changes in a name come on top. Residues count along the entry.
UniProt Q08460: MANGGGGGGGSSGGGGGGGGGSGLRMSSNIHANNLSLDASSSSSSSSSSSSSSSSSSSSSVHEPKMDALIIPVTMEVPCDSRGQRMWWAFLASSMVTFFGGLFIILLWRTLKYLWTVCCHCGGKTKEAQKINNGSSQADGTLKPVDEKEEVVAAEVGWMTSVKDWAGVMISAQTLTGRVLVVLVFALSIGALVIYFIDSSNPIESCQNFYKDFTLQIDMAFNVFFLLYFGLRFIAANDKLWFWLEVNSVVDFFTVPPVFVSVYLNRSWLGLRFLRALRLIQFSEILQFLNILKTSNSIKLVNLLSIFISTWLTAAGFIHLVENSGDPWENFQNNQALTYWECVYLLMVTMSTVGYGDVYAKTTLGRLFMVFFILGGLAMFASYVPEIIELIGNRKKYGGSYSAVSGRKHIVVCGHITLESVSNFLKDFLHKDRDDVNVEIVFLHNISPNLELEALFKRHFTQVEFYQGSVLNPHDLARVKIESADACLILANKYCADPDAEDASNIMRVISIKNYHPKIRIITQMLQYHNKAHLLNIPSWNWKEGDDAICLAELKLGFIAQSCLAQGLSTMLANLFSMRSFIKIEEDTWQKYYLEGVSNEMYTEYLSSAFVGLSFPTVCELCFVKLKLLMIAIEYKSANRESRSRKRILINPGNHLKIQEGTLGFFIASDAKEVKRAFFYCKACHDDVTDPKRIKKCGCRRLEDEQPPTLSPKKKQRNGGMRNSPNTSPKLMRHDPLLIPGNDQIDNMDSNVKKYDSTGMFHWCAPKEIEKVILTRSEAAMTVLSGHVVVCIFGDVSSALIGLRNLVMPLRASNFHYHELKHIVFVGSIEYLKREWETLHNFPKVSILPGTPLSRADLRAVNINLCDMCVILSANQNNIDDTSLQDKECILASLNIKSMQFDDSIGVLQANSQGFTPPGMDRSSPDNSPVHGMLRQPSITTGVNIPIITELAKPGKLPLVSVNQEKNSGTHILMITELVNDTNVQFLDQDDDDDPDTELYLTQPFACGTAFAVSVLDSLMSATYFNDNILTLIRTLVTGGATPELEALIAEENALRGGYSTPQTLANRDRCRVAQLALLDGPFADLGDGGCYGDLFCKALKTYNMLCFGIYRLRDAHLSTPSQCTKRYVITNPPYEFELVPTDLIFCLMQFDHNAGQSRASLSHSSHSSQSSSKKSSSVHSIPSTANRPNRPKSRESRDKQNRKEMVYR
UniProt P13487, residues 23-59: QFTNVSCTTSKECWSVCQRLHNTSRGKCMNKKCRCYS

Biological target: mSlo1/β4 channel (mouse | human) (UniProt Q08460)
Assay: patch-clamp electrophysiology (time course of current block); outside-out patches of transfected HEK293 cells perfused with 1 μM ChTX; steps to +100 mV, intracellular 10 μM Ca2+; τon and τoff fitted to a first order bimolecular reaction scheme; KD = [ChTX]/((τoff/τon) − 1); only the binder purified

Charybdotoxin (from UniProt P13487 23-59) (peptide)
binding: binds weakly
